# Measurements from the supplement of paper PMC9454738.
# Structures can show the parent of a compound that is named as a salt. The list shows a part of the results. This data set is noisy: repeats of one test often differ as much as different tests do.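 Test systems: triple-negative MDA-MB-231 breast cancer cells and their brain-metastatic MDA-MB-231BRM derivative, each stably carrying empty vector, full-length GLI1 or truncated tGLI1. Viability after 48 h was read by CellTiter-Blue and expressed against 1% DMSO vehicle. A compound was tGLI1-selective if it lowered viability 20% more in tGLI1 cells than in vector and GLI1 cells.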
# Tests used:
# Assay in all cases: cell viability relative to vehicle (DMSO) control (fraction); higher = more viable cells (less growth inhibition)
# Settings in all cases: treatment time 48 h
# MDA-MB-231 GLI1 = tested on: MDA-MB-231 GLI1
# MDA-MB-231 Vector = tested on: MDA-MB-231 Vector
# MDA-MB-231 tGLI1 = tested on: MDA-MB-231 tGLI1
# MDA-MB-231BRM GLI1 = tested on: MDA-MB-231BRM GLI1
# MDA-MB-231BRM Vector = tested on: MDA-MB-231BRM Vector
# MDA-MB-231BRM tGLI1 = tested on: MDA-MB-231BRM tGLI1
SMILES,cell viability (MDA-MB-231 GLI1; 0.05 µM),cell viability (MDA-MB-231 GLI1; 0.5 µM),cell viability (MDA-MB-231 GLI1; 5 µM),cell viability (MDA-MB-231 Vector; 0.05 µM),cell viability (MDA-MB-231 Vector; 0.5 µM),cell viability (MDA-MB-231 Vector; 5 µM),cell viability (MDA-MB-231 tGLI1; 0.05 µM),cell viability (MDA-MB-231 tGLI1; 0.5 µM),cell viability (MDA-MB-231 tGLI1; 5 µM),cell viability (MDA-MB-231BRM GLI1; 0.05 µM),cell viability (MDA-MB-231BRM GLI1; 0.5 µM),cell viability (MDA-MB-231BRM GLI1; 5 µM),cell viability (MDA-MB-231BRM Vector; 0.05 µM),cell viability (MDA-MB-231BRM Vector; 0.5 µM),cell viability (MDA-MB-231BRM Vector; 5 µM),cell viability (MDA-MB-231BRM tGLI1; 0.05 µM),cell viability (MDA-MB-231BRM tGLI1; 0.5 µM),cell viability (MDA-MB-231BRM tGLI1; 5 µM)
CN(C)CCCn1cc(C2=C(c3c[nH]c4ccccc34)C(=O)NC2=O)c2ccccc21,1.16,1.77,0.588,1.35,1.38,0.562,1.21,1.39,0.665,1.01,0.939,0.812,1.1,1.01,0.745,1.01,0.971,0.648
CN1CCCN(C(=O)c2cccc(-c3ccc(/C=C4/C(=O)Nc5ccc(Cl)cc54)o3)c2)CC1,1.36,1,-0.193,1.14,0.947,-0.178,1.29,0.909,-0.207,0.972,0.898,0.5,1.03,0.923,0.0767,0.989,0.958,-0.00346
CC(C)(O)CC(=O)NCCn1ccc2ncnc(Nc3ccc(Oc4cccc(C(F)(F)F)c4)c(Cl)c3)c21,1.18,1.19,0.955,1.23,1.16,0.757,1.4,1.14,0.968,0.948,0.987,0.656,1.05,0.948,0.578,1.04,0.972,0.602
C=CC(=O)Nc1ccc2ncnc(Nc3ccc(OCc4cccc(F)c4)c(Cl)c3)c2c1,1.05,0.43,-0.21,1.69,1.09,0.339,0.988,1.05,0.408,1.19,1.01,0.973,1.19,0.984,1.08,1.02,1.08,0.924
COc1ccc(CNC(=O)Nc2ncc([N+](=O)[O-])s2)cc1,1.15,1.76,1.18,0.592,0.648,0.597,0.684,0.694,0.758,0.5,0.527,0.428,0.558,0.458,0.412,0.63,0.666,0.655
CCCCCCCCc1ccc(CCC(N)(CO)CO)cc1 [Fingolimod (FTY720) HCl],1.17,1.56,-0.166,1.11,1.47,-0.0252,0.809,1.47,-0.127,0.976,0.954,0.906,1,1.06,0.941,1.01,1,0.863
COc1cc(Nc2nc3ccccc3nc2NS(=O)(=O)c2ccc(NC(=O)c3ccc(C)c(OC)c3)cc2)cc(OC)c1,1.3,1.14,0.99,1.98,1.18,0.922,1.08,1.17,1.06,1.13,1.06,0.963,1.08,1.09,0.722,1.1,1.13,1.05
O=C(O)c1ccc(Nc2ncc3c(n2)-c2ccc(Cl)cc2C(c2c(F)cccc2F)=NC3)cc1,1.31,1.59,0.852,1.5,0.947,0.725,1.24,1.19,0.704,0.968,1.02,0.95,1.05,0.93,1.02,1.03,0.98,0.936
CN1CCN(c2ccc(Nc3cc(-c4cccc(-n5ccc6cc(C7CC7)cc(F)c6c5=O)c4CO)cn(C)c3=O)nc2)CC1,1.2,1.62,0.726,1.34,1.42,0.839,1.59,1.4,0.991,1.04,0.949,0.876,1.13,1.03,0.983,0.986,0.939,0.851
COc1cc(Nc2ncc3c(n2)-c2ccc(Cl)cc2C(c2c(F)cccc2OC)=NC3)ccc1C(=O)O [Alisertib (MLN8237)],0.918,1.19,0.819,0.996,0.88,0.691,0.773,0.995,0.458,0.994,0.975,0.851,1.01,0.931,0.921,1.02,0.956,0.878
O=c1ncn2nc(Sc3ccc(F)cc3F)ccc2c1-c1c(Cl)cccc1Cl,1.41,1.48,1.79,0.936,1.22,1.41,1.21,1.39,1.45,1.15,0.686,0.889,1.1,1.06,0.927,1.05,0.659,0.87
N#C/C(=C(/N)Sc1ccc(N)cc1)c1ccccc1C(F)(F)F,1.37,1.67,1.32,1.78,1.3,0.891,1.18,1.39,1.05,0.937,0.945,1.02,0.964,0.921,1.07,0.936,0.96,1.04
O=C(Nc1ccccc1C(=O)NC1CCCCNC1=O)c1cc2ccccc2s1 (stereo unspecified),2.2,3.12,2.05,1.3,1.19,1.28,1.39,1.49,1.51,0.898,0.776,0.651,0.872,0.762,0.702,1.03,1.18,1.04
NC(=O)Cc1cccc(C(=O)c2ccccc2)c1N [Nepafenac],1.16,1.04,1.02,1.28,1.09,0.94,1.08,0.971,0.971,0.977,1.05,0.972,1,1.04,0.897,0.953,0.912,0.948
COc1ccc2[nH]cc(CCNC(C)=O)c2c1 [Melatonin],1.04,1.06,1.12,1.03,1.01,1.14,0.99,0.988,1.05,1.07,0.972,0.975,1.01,1.05,1.01,1.11,0.988,1.07
N#Cc1c(O)c2c(-c3ccc(-c4ccccc4O)cc3)csc2[nH]c1=O,1.32,1.25,1.25,1.31,1.33,1.81,1.52,1.17,1.19,1.02,0.975,0.932,1.07,1.14,0.959,1.06,1.09,0.94
CN(Cc1cnc2nc(N)nc(N)c2n1)c1ccc(C(=O)N[C@@H](CCC(=O)O)C(=O)O)cc1 [Abitrexate (Methotrexate)],1.19,1.02,0.701,1.3,1.19,0.962,1.11,1.03,0.801,1.01,0.984,1.03,0.984,0.981,1.02,1.06,1.01,1.03
CCN1CCN(Cc2ccc(C(=O)Nc3ccc(C)c(Oc4ccc5c(c4)CC(=O)N5)c3)cc2C(F)(F)F)CC1,2.22,2.93,1.43,1.26,1.21,0.583,1.39,1.52,0.778,0.81,0.806,0.576,0.919,0.87,0.684,1.14,1.09,1.04
O=C(NOC[C@H](O)CO)c1ccc(F)c(F)c1Nc1ccc(I)cc1F,1.12,1.15,0.772,1.11,0.644,0.437,1.01,0.999,0.532,0.979,0.972,1.02,0.923,1.01,1.04,0.962,1,0.953
CCN(CC)CCCCNc1ncc2cc(-c3cc(OC)cc(OC)c3)c(NC(=O)NC(C)(C)C)nc2n1,1.28,0.782,0.638,1.87,1.27,1.07,0.672,1.28,1.03,1.19,1.11,0.735,0.589,0.987,0.682,1.03,0.973,0.607
Oc1cccc(-c2nc(N3CCOCC3)c3oc4ncccc4c3n2)c1,1.17,0.813,0.451,1.07,0.646,0.379,0.916,0.729,0.344,0.884,0.844,0.68,0.818,0.943,0.777,0.838,0.732,0.644
COc1cc2ncnc(Nc3ccc(F)c(Cl)c3)c2cc1NC(=O)/C=C/CN1CCCCC1,1.37,1.21,-0.0548,1.25,1,0.0134,1.42,1.19,-0.0604,1.01,0.939,0.921,1.05,0.959,0.892,1.03,1.04,0.83
"CC[C@H](CO)Nc1nc(NCc2ccccc2)c2ncn(C(C)C)c2n1 [Roscovitine (Seliciclib,CYC202)]",1.38,1.84,1.37,1.56,1.32,1.09,1.36,1.68,0.494,1.06,1.02,0.945,0.97,0.934,0.937,0.964,1.03,0.612
O=C(NC1CCNCC1)c1n[nH]cc1NC(=O)c1c(Cl)cccc1Cl,1.12,0.211,0.23,1.5,0.262,0.186,0.487,0.207,0.185,0.718,1.17,1.02,1.18,0.948,0.621,1.13,1.04,0.92
CC(C)Nc1cc(-c2c[nH]c(C(=O)N[C@H](CO)c3cccc(Cl)c3)c2)c(Cl)cn1,1.87,1.88,1.02,1.32,0.802,0.575,1.21,0.946,0.694,0.812,0.765,0.601,0.909,0.761,0.66,1.11,1.02,0.946
O=C(/C=C/c1ccc(O)c(O)c1)c1ccc(O)cc1O [Butein],2.02,3.07,1.59,1.2,1.26,0.74,1.38,1.27,1.03,0.833,0.755,0.558,0.86,0.809,0.638,1.05,1.06,1.04
O=C(c1ccc(/C=C/c2n[nH]c3ccccc23)cc1)N1CCNCC1,1.43,1.09,1.06,1.98,1.02,0.776,1.36,1.11,0.874,1.12,1.02,0.784,1.19,0.941,0.856,0.505,0.932,0.831

# A draw from above in order of molar mass, descending:
SMILES,cell viability (MDA-MB-231 GLI1; 0.05 µM),cell viability (MDA-MB-231 GLI1; 0.5 µM),cell viability (MDA-MB-231 GLI1; 5 µM),cell viability (MDA-MB-231 Vector; 0.05 µM),cell viability (MDA-MB-231 Vector; 0.5 µM),cell viability (MDA-MB-231 Vector; 5 µM),cell viability (MDA-MB-231 tGLI1; 0.05 µM),cell viability (MDA-MB-231 tGLI1; 0.5 µM),cell viability (MDA-MB-231 tGLI1; 5 µM),cell viability (MDA-MB-231BRM GLI1; 0.05 µM),cell viability (MDA-MB-231BRM GLI1; 0.5 µM),cell viability (MDA-MB-231BRM GLI1; 5 µM),cell viability (MDA-MB-231BRM Vector; 0.05 µM),cell viability (MDA-MB-231BRM Vector; 0.5 µM),cell viability (MDA-MB-231BRM Vector; 5 µM),cell viability (MDA-MB-231BRM tGLI1; 0.05 µM),cell viability (MDA-MB-231BRM tGLI1; 0.5 µM),cell viability (MDA-MB-231BRM tGLI1; 5 µM)
N#Cc1c(O)c2c(-c3ccc(-c4ccccc4O)cc3)csc2[nH]c1=O,1.32,1.25,1.25,1.31,1.33,1.81,1.52,1.17,1.19,1.02,0.975,0.932,1.07,1.14,0.959,1.06,1.09,0.94
O=C(c1ccc(/C=C/c2n[nH]c3ccccc23)cc1)N1CCNCC1,1.43,1.09,1.06,1.98,1.02,0.776,1.36,1.11,0.874,1.12,1.02,0.784,1.19,0.941,0.856,0.505,0.932,0.831
COc1ccc2[nH]cc(CCNC(C)=O)c2c1 [Melatonin],1.04,1.06,1.12,1.03,1.01,1.14,0.99,0.988,1.05,1.07,0.972,0.975,1.01,1.05,1.01,1.11,0.988,1.07
